Source: the supplement of paper PMC8728848
This is one part of the list.

Key:
Assay in all cases: glycan array binding signal (z-score within array); higher = stronger binding
Settings in all cases: glycan notation: IUPAC condensed, linker removed
[1] = biological target: Fuc(a1-3)[Gal3S(b1-4)]GlcNAc
How it was run: (§1)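 The binding signal is a Z-score computed within each array. Data were drawn from 3228 arrays in the Consortium for Functional Glycomics database, restricted to those with a known protein sequence. Scores were averaged over arrays of the same protein sequence at different concentrations or buffers, and over linkers, and negative values can be taken as non-binding.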

[2] = biological target: Fuc(a1-3)[Gal3S(b1-4)]GlcNAc6S
How it was run: as §1

[3] = biological target: Fuc(a1-3)[GalNAc(b1-4)]GlcNAc
How it was run: as §1

Fuc(a1-4)GlcNAc = biological target: Fuc(a1-4)GlcNAc
How it was run: as §1

Fuc(b1-3)GlcNAc = biological target: Fuc(b1-3)GlcNAc
How it was run: as §1

Gal(a1-2)Gal = biological target: Gal(a1-2)Gal
How it was run: as §1

Gal(a1-3)Gal = biological target: Gal(a1-3)Gal
How it was run: as §1

Gal(a1-3)Gal(b1-3)GlcNAc = biological target: Gal(a1-3)Gal(b1-3)GlcNAc
How it was run: as §1

[4] = biological target: Gal(a1-3)Gal(b1-3)GlcNAc(b1-2)Man(a1-3)[Gal(a1-3)Gal(b1-3)GlcNAc(b1-2)Man(a1-6)]Man(b1-4)GlcNAc(b1-4)GlcNAc
How it was run: as §1

[5] = biological target: Gal(a1-3)Gal(b1-3)[Fuc(a1-4)]GlcNAc(b1-2)Man(a1-3)[Gal(a1-3)Gal(b1-3)[Fuc(a1-4)]GlcNAc(b1-2)Man(a1-6)]Man(b1-4)GlcNAc(b1-4)GlcNAc
How it was run: as §1

Gal(a1-3)Gal(b1-4)Glc = biological target: Gal(a1-3)Gal(b1-4)Glc
How it was run: as §1

Gal(a1-3)Gal(b1-4)GlcNAc = biological target: Gal(a1-3)Gal(b1-4)GlcNAc
How it was run: as §1

[6] = biological target: Gal(a1-3)Gal(b1-4)GlcNAc(b1-3)GalNAc
How it was run: as §1

[7] = biological target: Gal(a1-3)Gal(b1-4)[Fuc(a1-3)]GlcNAc
How it was run: as §1

[8] = biological target: Gal(a1-3)Gal(b1-4)[Fuc(a1-3)]GlcNAc(b1-2)Man(a1-3)[Gal(a1-3)Gal(b1-4)[Fuc(a1-3)]GlcNAc(b1-2)Man(a1-6)]Man(b1-4)GlcNAc(b1-4)GlcNAc
How it was run: as §1

Gal(a1-3)GalNAc = biological target: Gal(a1-3)GalNAc
How it was run: as §1

[9] = biological target: Gal(a1-3)[Gal(a1-4)]Gal(b1-4)GlcNAc
How it was run: as §1

[10] = biological target: Gal(a1-4)Gal(b1-3)GlcNAc(b1-2)Man(a1-3)[Gal(a1-4)Gal(b1-3)GlcNAc(b1-2)Man(a1-6)]Man(b1-4)GlcNAc(b1-4)GlcNAc
How it was run: as §1

Gal(a1-4)Gal(b1-4)Glc = biological target: Gal(a1-4)Gal(b1-4)Glc
How it was run: as §1

Gal(a1-4)Gal(b1-4)GlcNAc = biological target: Gal(a1-4)Gal(b1-4)GlcNAc
How it was run: as §1

[11] = biological target: Gal(a1-4)Gal(b1-4)GlcNAc(b1-2)Man(a1-3)[Gal(a1-4)Gal(b1-4)GlcNAc(b1-2)Man(a1-6)]Man(b1-4)GlcNAc(b1-4)GlcNAc
How it was run: as §1

[12] = biological target: Gal(a1-4)Gal(b1-4)GlcNAc(b1-3)Gal(b1-4)Glc
How it was run: as §1

Gal(a1-4)GlcNAc = biological target: Gal(a1-4)GlcNAc
How it was run: as §1

Gal(a1-6)Glc = biological target: Gal(a1-6)Glc
How it was run: as §1

Gal(b1-2)Gal = biological target: Gal(b1-2)Gal
How it was run: as §1

Gal(b1-3)Gal = biological target: Gal(b1-3)Gal
How it was run: as §1

Gal(b1-3)Gal(b1-4)GlcNAc = biological target: Gal(b1-3)Gal(b1-4)GlcNAc
How it was run: as §1

[13] = biological target: Gal(b1-3)Gal(b1-4)GlcNAc(b1-2)Man(a1-3)[Gal(b1-3)Gal(b1-4)GlcNAc(b1-2)Man(a1-6)]Man(b1-4)GlcNAc(b1-4)GlcNAc
How it was run: as §1

Gal(b1-3)GalNAc = biological target: Gal(b1-3)GalNAc
How it was run: as §1

[14] = biological target: Gal(b1-3)GalNAc(a1-3)[Fuc(a1-2)]Gal(b1-4)Glc
How it was run: as §1

[15] = biological target: Gal(b1-3)GalNAc(a1-3)[Fuc(a1-2)]Gal(b1-4)GlcNAc
How it was run: as §1

[16] = biological target: Gal(b1-3)GalNAc(b1-3)Gal(a1-4)Gal(b1-4)Glc
How it was run: as §1

[17] = biological target: Gal(b1-3)GalNAc(b1-4)Gal(b1-4)Glc
How it was run: as §1

[18] = biological target: Gal(b1-3)GalNAc(b1-4)[Neu5Ac(a2-3)]Gal(b1-4)Glc
How it was run: as §1

Gal(b1-3)GlcNAc = biological target: Gal(b1-3)GlcNAc
How it was run: as §1

[19] = biological target: Gal(b1-3)GlcNAc(a1-6)Gal(b1-4)GlcNAc
How it was run: as §1

[20] = biological target: Gal(b1-3)GlcNAc(b1-2)Man(a1-3)[Gal(b1-3)GlcNAc(b1-2)Man(a1-6)]Man(b1-4)GlcNAc(b1-4)GlcNAc
How it was run: as §1

[21] = biological target: Gal(b1-3)GlcNAc(b1-2)Man(a1-3)[Gal(b1-3)GlcNAc(b1-2)Man(a1-6)]Man(b1-4)GlcNAc(b1-4)[Fuc(a1-6)]GlcNAc
How it was run: as §1

[22] = biological target: Gal(b1-3)GlcNAc(b1-3)Gal(b1-3)GlcNAc
How it was run: as §1

[23] = biological target: Gal(b1-3)GlcNAc(b1-3)Gal(b1-4)Glc
How it was run: as §1

[24] = biological target: Gal(b1-3)GlcNAc(b1-3)Gal(b1-4)GlcNAc
How it was run: as §1

[25] = biological target: Gal(b1-3)GlcNAc(b1-3)Gal(b1-4)GlcNAc(b1-6)[Gal(b1-3)GlcNAc(b1-3)]Gal(b1-4)Glc
How it was run: as §1

[26] = biological target: Gal(b1-3)GlcNAc(b1-3)Gal(b1-4)[Fuc(a1-3)]GlcNAc(b1-6)[Gal(b1-3)GlcNAc(b1-3)]Gal(b1-4)Glc
How it was run: as §1

[27] = biological target: Gal(b1-3)GlcNAc(b1-3)GalNAc
How it was run: as §1

[28] = biological target: Gal(b1-3)GlcNAc(b1-6)Gal(b1-4)GlcNAc
How it was run: as §1

[29] = biological target: Gal(b1-3)[Fuc(a1-4)]GlcNAc
How it was run: as §1

[30] = biological target: Gal(b1-3)[Fuc(a1-4)]GlcNAc(b1-2)Man(a1-3)[Gal(b1-3)[Fuc(a1-4)]GlcNAc(b1-2)Man(a1-6)]Man(b1-4)GlcNAc(b1-4)GlcNAc
How it was run: as §1

[31] = biological target: Gal(b1-3)[Fuc(a1-4)]GlcNAc(b1-2)Man(a1-3)[Gal(b1-3)[Fuc(a1-4)]GlcNAc(b1-2)Man(a1-6)]Man(b1-4)GlcNAc(b1-4)[Fuc(a1-6)]GlcNAc
How it was run: as §1

[32] = biological target: Gal(b1-3)[Fuc(a1-4)]GlcNAc(b1-3)Gal(b1-3)[Fuc(a1-4)]GlcNAc
How it was run: as §1

[33] = biological target: Gal(b1-3)[Fuc(a1-4)]GlcNAc(b1-3)Gal(b1-4)GlcNAc
How it was run: as §1

[34] = biological target: Gal(b1-3)[Fuc(a1-4)]GlcNAc(b1-3)Gal(b1-4)[Fuc(a1-3)]GlcNAc
How it was run: as §1

[35] = biological target: Gal(b1-3)[GlcNAc(b1-6)]GalNAc
How it was run: as §1

[36] = biological target: Gal(b1-3)[Neu5Ac(a2-6)]GalNAc
How it was run: as §1

[37] = biological target: Gal(b1-3)[Neu5Ac(a2-6)]GlcNAc(b1-6)Gal(b1-4)Glc
How it was run: as §1

[38] = biological target: Gal(b1-3)[Neu5Ac(b2-6)]GalNAc
How it was run: as §1

[39] = biological target: Gal(b1-4)GalNAc(a1-3)[Fuc(a1-2)]Gal(b1-4)GlcNAc
How it was run: as §1

[40] = biological target: Gal(b1-4)GalNAc(b1-3)[Fuc(a1-2)]Gal(b1-4)GlcNAc
How it was run: as §1

Gal(b1-4)Glc = biological target: Gal(b1-4)Glc
How it was run: as §1

Gal(b1-4)Glc6S = biological target: Gal(b1-4)Glc6S
How it was run: as §1

Gal(b1-4)GlcNAc = biological target: Gal(b1-4)GlcNAc
How it was run: as §1

B1: CLEC9a (Mus musculus), Q8BRU4 (protein)
chain: MHAEEIYTSLQWDIPTSEASQKCQSPSKCSGAWCVVTMISCVVCMGLLATSIFLGIKFFQVSSLVLEQQERLIQQDTALVNLTQWQRKYTLEYCQALLQRSLHSGSDCSPCPHNWIQNGKSCYYVFERWEMWNISKKSCLKEGASLFQIDSKEEMEFISSIGKLKGGNKYWVGVFQDGISGSWFWEDGSSPLSDLLPAERQRSAGQICGYLKDSTLISDKCDSWKYFICEKKAFGSCI
glycan array binding signal (z-score) [1]: 0.043
glycan array binding signal (z-score) [2]: -0.039
glycan array binding signal (z-score) [3]: -0.016
glycan array binding signal (z-score) (Fuc(a1-4)GlcNAc): 0.63
glycan array binding signal (z-score) (Fuc(b1-3)GlcNAc): -0.568
glycan array binding signal (z-score) (Gal(a1-2)Gal): 0.171
glycan array binding signal (z-score) (Gal(a1-3)Gal): 1.37
glycan array binding signal (z-score) (Gal(a1-3)Gal(b1-3)GlcNAc): 0.766
glycan array binding signal (z-score) [4]: 0.323
glycan array binding signal (z-score) [5]: 1.38
glycan array binding signal (z-score) (Gal(a1-3)Gal(b1-4)Glc): 0.156
glycan array binding signal (z-score) (Gal(a1-3)Gal(b1-4)GlcNAc): 1.47
glycan array binding signal (z-score) [6]: -0.478
glycan array binding signal (z-score) [7]: 0.082
glycan array binding signal (z-score) [8]: 0.312
glycan array binding signal (z-score) (Gal(a1-3)GalNAc): 0.271
glycan array binding signal (z-score) [9]: -0.691
glycan array binding signal (z-score) [10]: 3.35
glycan array binding signal (z-score) (Gal(a1-4)Gal(b1-4)Glc): -0.652
glycan array binding signal (z-score) (Gal(a1-4)Gal(b1-4)GlcNAc): 0.415
glycan array binding signal (z-score) [11]: 0.28
glycan array binding signal (z-score) [12]: 1.36
glycan array binding signal (z-score) (Gal(a1-4)GlcNAc): 0.545
glycan array binding signal (z-score) (Gal(a1-6)Glc): -0.332
glycan array binding signal (z-score) (Gal(b1-2)Gal): 0.032
glycan array binding signal (z-score) (Gal(b1-3)Gal): 0.706
glycan array binding signal (z-score) (Gal(b1-3)Gal(b1-4)GlcNAc): -1.04
glycan array binding signal (z-score) [13]: 0.024
glycan array binding signal (z-score) (Gal(b1-3)GalNAc): -0.657
glycan array binding signal (z-score) [14]: -0.197
glycan array binding signal (z-score) [15]: -0.754
glycan array binding signal (z-score) [16]: 1.15
glycan array binding signal (z-score) [17]: 0.254
glycan array binding signal (z-score) [18]: 0.155
glycan array binding signal (z-score) (Gal(b1-3)GlcNAc): 0.346
glycan array binding signal (z-score) [19]: -1.66
glycan array binding signal (z-score) [20]: 1.97
glycan array binding signal (z-score) [21]: 0.889
glycan array binding signal (z-score) [22]: -0.95
glycan array binding signal (z-score) [23]: 1.12
glycan array binding signal (z-score) [24]: 1.18
glycan array binding signal (z-score) [25]: -0.402
glycan array binding signal (z-score) [26]: -0.367
glycan array binding signal (z-score) [27]: -1.75
glycan array binding signal (z-score) [28]: 0.069
glycan array binding signal (z-score) [29]: 1.85
glycan array binding signal (z-score) [30]: -1.53
glycan array binding signal (z-score) [31]: -1.31
glycan array binding signal (z-score) [32]: 1.12
glycan array binding signal (z-score) [33]: -0.507
glycan array binding signal (z-score) [34]: 0.941
glycan array binding signal (z-score) [35]: -0.515
glycan array binding signal (z-score) [36]: -1.32
glycan array binding signal (z-score) [37]: 0.549
glycan array binding signal (z-score) [38]: 1.89
glycan array binding signal (z-score) [39]: -1.23
glycan array binding signal (z-score) [40]: 0.3
glycan array binding signal (z-score) (Gal(b1-4)Glc): -0.825
glycan array binding signal (z-score) (Gal(b1-4)Glc6S): -0.33
glycan array binding signal (z-score) (Gal(b1-4)GlcNAc): -1.06
